For at least one compound, name, drawing or mass did not settle the structure.
Legend:
PRC2 complex = PRC2 complex protein levels and co-immunoprecipitation with EZH2; type: cell-based; conditions: compared to control
[1] = system: R/R DLBCL or follicular lymphoma (FL); conditions: 17 evaluable patients with EZH2 mutated DLBCL; cited from earlier work

Row | Structure (SMILES) | dissociation of the PRC2 complex, co-immunoprecipitation pull-down with EZH2 (PRC2 complex) | stable disease [1]
1 | C/C=C1\NC(=O)[C@H]2CSSCC/C=C/[C@H](CC(=O)N[C@H](C(C)C)C(=O)N2)OC(=O)[C@H](C(C)C)NC1=O [romidepsin] | dissociation of EZH2 from EED, RbAp 46/48 and AEBP2 | –
2 | CCN(c1cc(-c2ccc(CN3CCOCC3)cc2)cc(C(=O)NCc2c(C)cc(C)[nH]c2=O)c1C)C1CCOCC1 [tazemetostat] | – | 35%

From patent US11597933B2, “Combination therapy of lymphoma” (The Trustees of Columbia University in the City of New York, priority 2017, dated 2023)
